Test results reported in article PMC5515856.
These are yes or no findings as the source states them, for the method shown. A result given as binding can be weak or reduced; the word gives no strength. Where a sequence is shown, tags or fusion partners need not be part of it.

Target: T1, AtTT8-BD (AtTT8 bHLH protein fused to the GAL4 DNA-binding domain) (Arabidopsis thaliana) (UniProt Q9FT81)
T1 sequence: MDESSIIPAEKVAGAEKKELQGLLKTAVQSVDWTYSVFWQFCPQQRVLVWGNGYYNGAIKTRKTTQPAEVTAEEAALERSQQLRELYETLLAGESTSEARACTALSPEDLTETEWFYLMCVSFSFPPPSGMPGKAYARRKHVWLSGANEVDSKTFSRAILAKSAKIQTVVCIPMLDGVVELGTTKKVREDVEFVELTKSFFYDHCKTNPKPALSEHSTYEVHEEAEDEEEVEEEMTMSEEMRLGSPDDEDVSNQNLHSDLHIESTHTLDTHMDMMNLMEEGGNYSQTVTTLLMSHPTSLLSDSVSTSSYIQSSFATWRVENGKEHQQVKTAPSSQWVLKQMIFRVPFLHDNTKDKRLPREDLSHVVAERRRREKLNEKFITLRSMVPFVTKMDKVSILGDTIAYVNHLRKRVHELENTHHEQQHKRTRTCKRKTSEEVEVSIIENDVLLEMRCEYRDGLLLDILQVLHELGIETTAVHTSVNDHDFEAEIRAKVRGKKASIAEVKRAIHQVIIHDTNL
Test: two-hybrid; GAL4 system in yeast AH109; prey in pGADT7 (AD), bait in pGBKT7 (BD); growth on SD/-Trp/-Leu, SD/-Trp/-Leu/-Ade/-His and quadruple dropout medium with X-Gal, photographed after 3-4 days

binding: binds
Substance: EsMYB9-AD (R2R3-MYB transcription factor EsMYB9 fused to the GAL4 activation domain) (Epimedium sagittatum)
